# No constants are given. Whether binding was seen depends on the method and setting. Binding seen in cells or lysates may run through a third protein. Some entries that bind do so weakly or less than the wild type.
# Protein sequences, listed by entry. Tags and fused reporters are not part of them.
# UniProt P28033: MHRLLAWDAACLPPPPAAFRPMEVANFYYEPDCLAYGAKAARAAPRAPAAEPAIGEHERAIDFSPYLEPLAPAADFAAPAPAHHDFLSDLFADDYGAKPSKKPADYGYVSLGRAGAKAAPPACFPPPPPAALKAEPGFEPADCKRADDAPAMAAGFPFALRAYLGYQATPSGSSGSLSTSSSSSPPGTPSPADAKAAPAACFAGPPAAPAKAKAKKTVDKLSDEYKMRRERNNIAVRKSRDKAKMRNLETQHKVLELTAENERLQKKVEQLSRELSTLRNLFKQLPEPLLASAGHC
# B1: p21 (coded by Cdkn1a) (protein, UniProt P39689 1-159)
# chain: MSNPGDVRPVPHRSKVCRCLFGPVDSEQLRRDCDALMAGCLQEARERWNFDFVTETPLEGNFVWERVRSLGLPKVYLSPGSRSRDDLGGDKRPSTSSALLQGPAPEDHVALSLSCTLVSERPEDSPGGPGTSQGRKRRQTSLTDFYHSKRRLVFCKRKP
# Target: CCAAT/enhancer-binding protein beta (C/EBPβ) (mouse (endogenous in BV2)) (UniProt P28033)
# Experiment: co-IP; nuclear proteins of BV2 cells under control or oxygen-glucose deprivation (OGD, 3 h) conditions, immunoprecipitation with C/EBPβ antibody or control IgG, protein A/G magnetic beads, Western blotting; quantified as percentage of input
binder,measurement,value
B1,binding,binds
